Reference: patent US20210380680A1 (ZLLP, published 2021)
These are yes or no findings as the source states them, for the method shown. Some binding calls cover weakened binding; strength is not graded here.

Sequences of proteins named here, by UniProt entry; tags and fusion partners are left off. A change or cut given only in a name is not applied to a line headed by its entry. A line that says so, or that is headed by a name, gives the form on record, which may keep a tag or linker.
CLDN18.2 endogenously expressed on SNU620 gastric cancer cells (P56856-2, form named): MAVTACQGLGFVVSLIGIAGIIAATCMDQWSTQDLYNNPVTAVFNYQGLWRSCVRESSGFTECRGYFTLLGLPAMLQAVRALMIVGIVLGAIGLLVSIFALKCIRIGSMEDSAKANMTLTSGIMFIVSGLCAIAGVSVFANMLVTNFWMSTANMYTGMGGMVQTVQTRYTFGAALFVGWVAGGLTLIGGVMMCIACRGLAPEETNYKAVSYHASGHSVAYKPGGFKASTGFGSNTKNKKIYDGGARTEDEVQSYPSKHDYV

Assays:
[1] = molecular target: CLDN18.2 endogenously expressed on SNU620 gastric cancer cells (UniProt P56856); assay: FACS on SNU620 cells, 10 ug/mL
[2] = molecular target: CLDN18.2 endogenously expressed on SNU620 gastric cancer cells (UniProt P56856); assay: FACS on SNU620 cells @10 ug/ml
[3] = molecular target: CLDN18.2 endogenously expressed on SNU620 gastric cancer cells (UniProt P56856); assay: FACS
[4] = molecular target: CLDN18.2 endogenously expressed on SNU620 gastric cancer cells (UniProt P56856); assay: FACS on SNU620 cells
[5] = molecular target: human Claudin 18.2 (CLDN18.2) (human, UniProt P56856-2 1-261); assay: FACS on CHO-CLDN18.2 cells
[6] = molecular target: human Claudin 18.2 (CLDN18.2) (human) (UniProt P56856); assay: FACS on CHO-CLDN18.2 cells

Row | binding [4] | binding [6] | Binder | also measured
1 |  | binds | hz282-15 (antibody, V domains shown, humanized IgG; constant regions not specified) VH: QVQLQESGPGLVKPSETLSLTCTVSGFSLTSYNVYWIRQPPGKGLEWIGVIWNTGATRYNSALKSRVTISKDTSKSQVSLKLSSVTAADTAVYYCARDSAMPAIPFAYWGQGTLVTVSS VL: DIQMTQSPSSLSASVGDRVTITCKSSQSLFGSVRQKNYLAWYQQKPGKSPKLLIYLASTRESGVPDRFSGSGSGTDFTLTISSLQPEDFAKYYCQQYYDIPWTFGGGTKVEIK | 
2 |  | binds | hz282-3 (antibody, V domains shown, humanized IgG; constant regions not specified) VH: QVQLQESGPGLVKPSETLSLTCTVSGFSLTSYNVYWIRQPPGKGLEWIGVIWNTGATRYNSALKSRVTISKDTSKSQVSLKLSSVTAADTAVYYCARDSAMPAIPFAYWGQGTLVTVSS VL: DIVMTQSPDSLAVSLGERATINCKSSQSLFGSVRQKNYLAWYQQKPGQPPKLLIYLASTRESGVPDRFSGSGSGTDFTLTISSLQAEDVAVYYCQQYYDIPWTFGGGTKVEIK | 
3 |  | binds | hz282-10 (antibody, V domains shown, humanized IgG; constant regions not specified) VH: QVQLQESGPGLVKPSETLSLTCTVSGFSLTSYNVYWIRQPPGKGLEWIGVIWNTGATRYNSALKSRVTISKDTSKNQVSLKLSSVTAADTAVYYCARDSAMPAIPFAYWGQGTLVTVSS VL: DIQMTQSPSSLSASVGDRVTITCKSSQSLFGSVRQKNYLAWYQQKPGKAPKLLIYLASTRESGVPSRFSGSGSGTDFTLTISSLQPEDFATYYCQQYYDIPWTFGGGTKVEIK | 
4 |  | binds | hz282-8 (antibody, V domains shown, humanized IgG; constant regions not specified) VH: QVQLQESGPGLVKPSETLSLTCTVAGFSLTSYNVYWIRQPPGKGLEWIGVIWNTGATRYNSALKSRVTISKDTSKSQVSLKLSSVTAADTAVYYCARDSAMPAIPFAYWGQGTLVTVSS VL: DIVMTQSPDSLAVSLGERATINCKSSQSLFGSVRQKNYLAWYQQKPGQSPKLLIYLASTRESGVPDRFSGSGSGTDFTLTISSLQAEDVAKYYCQQYYDIPWTFGGGTKVEIK | 
5 |  | binds | hz282-12 (antibody, V domains shown, humanized IgG; constant regions not specified) VH: QVQLQESGPGLVKPSETLSLTCTVAGFSLTSYNVYWIRQPPGKGLEWIGVIWNTGATRYNSALKSRVTISKDTSKSQVSLKLSSVTAADTAVYYCARDSAMPAIPFAYWGQGTLVTVSS VL: DIQMTQSPSSLSASVGDRVTITCKSSQSLFGSVRQKNYLAWYQQKPGKAPKLLIYLASTRESGVPSRFSGSGSGTDFTLTISSLQPEDFATYYCQQYYDIPWTFGGGTKVEIK | 
6 |  | binds | hz282-4 (antibody, V domains shown, humanized IgG; constant regions not specified) VH: QVQLQESGPGLVKPSETLSLTCTVAGFSLTSYNVYWIRQPPGKGLEWIGVIWNTGATRYNSALKSRVTISKDTSKSQVSLKLSSVTAADTAVYYCARDSAMPAIPFAYWGQGTLVTVSS VL: DIVMTQSPDSLAVSLGERATINCKSSQSLFGSVRQKNYLAWYQQKPGQPPKLLIYLASTRESGVPDRFSGSGSGTDFTLTISSLQAEDVAVYYCQQYYDIPWTFGGGTKVEIK | 
7 | binds |  | 282A12F3 (rat hybridoma antibody) (antibody, V domains shown, purified rat IgG from hybridoma) VH: QVQLKESGPVLVQPSQTLSLTCTVAGFSLTSYNVYWVRQPPGKGLEWMGVIWNTGATRYNSTLKSRLSISKDTSKSQVFLKMNSLQTEDTATYYCARDSAMPAIPFAYWGQGTLVTVSS VL: DIVMTQSPSSLAVSAGETVTINCKSSQSLFGSVRQKNYLAWYQQKPGQSPKLLIYLASTRESGVPDRFIGSGSGTDFTLTISSVQAEDLAKYYCQQYYDIPWTFGGGTKLELK | binding [2]: binds; binding [3]: binds
8 | binds |  | 413H9F8-VL-N31E (antibody, human IgG1, kappa, V domains shown, chimeric human IgG1, PTM site removed) VH: DVQLVESGGGSVQPGGSRRLSCAASGFTFSSFGMHWVRQAPEKGLEWVAYISSGSSPIYYVDKLKGRFTVSRDNPKNTLFLQMTSLRSEDTAMYYCARAGYAVRNALDYWGQGTSITVSS VL: DIVMTQSPSSLSVSVGEKVTLSCKSSQSLLESGNQKNYLAWYQQKTGQPPKLLIYGASTRESGVPDRFIGSGSGTDFTLTISSVQAEDLAVYFCQNDLFYPLTFGAGTKLELKR | 

The remaining lines, values behind:

Row | Binder | binding [4] | binding [6] | also measured
9 | 364D1A7 (mouse hybridoma antibody) (antibody, V domains shown, purified mouse IgG from hybridoma) VH: DVQLVESGGGLVQPGGSRKLSCAASGFTFSSFGMHWVRQAPEKGLEWVAYISSGSGSIYYADTVKGRFTLSRDNPKNTLFLQMTSLRSEDTAIYYCATSYYYGNALEYWGQGTSVTVSS VL: DVVLTQSPSSLTVTEGEKVSMSCKSSQSLFNSGNQKNYLTWYQQKPGQTPTLLIYWASTRKSGVPDRFTGSGSGTDFTLTINTVQAEDLAVYYCQNVYSYPLTFGAGTKLDLK |  |  | binding [1]: binds; binding [2]: binds; binding [3]: binds
10 | 364D1A7-VL-S32L (antibody, human IgG1, kappa, V domains shown) VH: DVQLVESGGGLVQPGGSRKLSCAASGFTFSSFGMHWVRQAPEKGLEWVAYISSGSGSIYYADTVKGRFTLSRDNPKNTLFLQMTSLRSEDTAIYYCATSYYYGNALEYWGQGTSVTVSS VL: DVVLTQSPSSLTVTEGEKVSMSCKSSQSLFNLGNQKNYLTWYQQKPGQTPTLLIYWASTRKSGVPDRFTGSGSGTDFTLTINTVQAEDLAVYYCQNVYSYPLTFGAGTKLDLKR | binds |  | 
11 | 364D1A7-VL-N31E (antibody, human IgG1, kappa, V domains shown, chimeric human IgG1, PTM site removed) VH: DVQLVESGGGLVQPGGSRKLSCAASGFTFSSFGMHWVRQAPEKGLEWVAYISSGSGSIYYADTVKGRFTLSRDNPKNTLFLQMTSLRSEDTAIYYCATSYYYGNALEYWGQGTSVTVSS VL: DVVLTQSPSSLTVTEGEKVSMSCKSSQSLFESGNQKNYLTWYQQKPGQTPTLLIYWASTRKSGVPDRFTGSGSGTDFTLTINTVQAEDLAVYYCQNVYSYPLTFGAGTKLDLKR | binds |  | 
12 | 364D1A7-VL-S32V (antibody, human IgG1, kappa, V domains shown, chimeric human IgG1, PTM site removed; also called 364D1A7-VL-32V) VH: DVQLVESGGGLVQPGGSRKLSCAASGFTFSSFGMHWVRQAPEKGLEWVAYISSGSGSIYYADTVKGRFTLSRDNPKNTLFLQMTSLRSEDTAIYYCATSYYYGNALEYWGQGTSVTVSS VL: DVVLTQSPSSLTVTEGEKVSMSCKSSQSLFNVGNQKNYLTWYQQKPGQTPTLLIYWASTRKSGVPDRFTGSGSGTDFTLTINTVQAEDLAVYYCQNVYSYPLTFGAGTKLDLKR | binds |  | 
13 | hz282-19 (antibody, V domains shown, humanized IgG; constant regions not specified) VH: QVQLQESGPGLVKPSETLSLTCTVSGFSLTSYNVYWIRQPPGKGLEWIGVIWNTGATRYNSALKSRVTISKDTSKSQVSLKLSSVTAADTAVYYCARDSAMPAIPFAYWGQGTLVTVSS VL: DIVMTQSPSSLSASVGDRVTINCKSSQSLFGSVRQKNYLAWYQQKPGKSPKLLIYLASTRESGVPDRFSGSGSGTDFTLTISSLQPEDFAKYYCQQYYDIPWTFGGGTKVEIK |  |  | binding [5]: binds
14 | 413H9F8 (mouse hybridoma antibody) (antibody, V domains shown, purified mouse IgG from hybridoma) VH: DVQLVESGGGSVQPGGSRRLSCAASGFTFSSFGMHWVRQAPEKGLEWVAYISSGSSPIYYVDKLKGRFTVSRDNPKNTLFLQMTSLRSEDTAMYYCARAGYAVRNALDYWGQGTSITVSS VL: DIVMTQSPSSLSVSVGEKVTLSCKSSQSLLNSGNQKNYLAWYQQKTGQPPKLLIYGASTRESGVPDRFIGSGSGTDFTLTISSVQAEDLAVYFCQNDLFYPLTFGAGTKLELK |  |  | binding [1]: binds; binding [2]: binds; binding [3]: binds
15 | 413H9F8-VL-S32L (antibody, human IgG1, kappa, V domains shown) VH: DVQLVESGGGSVQPGGSRRLSCAASGFTFSSFGMHWVRQAPEKGLEWVAYISSGSSPIYYVDKLKGRFTVSRDNPKNTLFLQMTSLRSEDTAMYYCARAGYAVRNALDYWGQGTSITVSS VL: DIVMTQSPSSLSVSVGEKVTLSCKSSQSLLNLGNQKNYLAWYQQKTGQPPKLLIYGASTRESGVPDRFIGSGSGTDFTLTISSVQAEDLAVYFCQNDLFYPLTFGAGTKLELKR | binds |  | 
16 | 413H9F8-VL-S32V (antibody, human IgG1, kappa, V domains shown, chimeric human IgG1, PTM site removed; also called 413H9F8-VL-32V; 413H9F8-VL-532V) VH: DVQLVESGGGSVQPGGSRRLSCAASGFTFSSFGMHWVRQAPEKGLEWVAYISSGSSPIYYVDKLKGRFTVSRDNPKNTLFLQMTSLRSEDTAMYYCARAGYAVRNALDYWGQGTSITVSS VL: DIVMTQSPSSLSVSVGEKVTLSCKSSQSLLNVGNQKNYLAWYQQKTGQPPKLLIYGASTRESGVPDRFIGSGSGTDFTLTISSVQAEDLAVYFCQNDLFYPLTFGAGTKLELKR | binds |  | 
